The supplement of paper PMC6078165

Tested on: BT20
Assay: relative JC-1 red fluorescence (viability) vs pre-drug, coculture with fibroblast (fraction); higher = more viable cancer cells
Method: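 JC-1 labelled TNBC cells cocultured 1:1 (1,500 cells each) with CellTrace Violet stained primary or stromal fibroblasts in 384-well plates in FluoroBrite medium, treated with one of 42 anticancer drugs at 0.1, 1, 10 or 100 uM. JC-1 red fluorescence (mitochondrial integrity in cancer cells only) was read by plate reader every 8 h for 72 h. Values are normalised to each well's pre-drug value. The stock of one drug was tenfold lower, so its dose labels may be too high.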

CO[C@@]12[C@H](COC(N)=O)C3=C(C(=O)C(C)=C(N)C3=O)N1C[C@@H]1N[C@@H]12 [Mitomycin C]
relative JC-1 red fluorescence
Details	8 h	16 h	24 h	32 h	40 h	48 h	56 h	64 h	72 h
0.1 µM, coculture fibroblast: C12385	0.927	0.861	0.804	0.749	0.705	0.668	0.648	0.62	0.592
0.1 µM, coculture fibroblast: H6013	0.976	0.895	0.831	0.795	0.738	0.711	0.688	0.644	0.614
0.1 µM, coculture fibroblast: H6019	0.87	0.809	0.784	0.727	0.67	0.645	0.608	0.577	0.556
0.1 µM, coculture fibroblast: H6076	0.895	0.861	0.773	0.737	0.686	0.65	0.617	0.596	0.565
0.1 µM, coculture fibroblast: H6231	0.901	0.9238	0.79354	0.7302	0.6809	0.6201	0.573	0.541	0.516
0.1 µM, coculture fibroblast: HADF	0.77	0.933	0.857	0.837	0.807	0.762	0.734	0.71	0.666
0.1 µM, coculture fibroblast: HCFa	0.949	0.856	0.788	0.728	0.67	0.636	0.603	0.576	0.537
0.1 µM, coculture fibroblast: HCPF	0.855	0.879	0.807	0.7599	0.714	0.683	0.646	0.625	0.586
0.1 µM, coculture fibroblast: HHSteC	0.959	0.862	0.831	0.758	0.712	0.679	0.656	0.634	0.601
0.1 µM, coculture fibroblast: HMF	0.9877	0.905	0.823	0.778	0.739	0.695	0.66	0.624	0.589
0.1 µM, coculture fibroblast: HPFa	0.959	0.893	0.841	0.841	0.826	0.791	0.781	0.758	0.707
0.1 µM, coculture fibroblast: HUF	0.905	0.805	0.748	0.657	0.607	0.572	0.553	0.527	0.504
0.1 µM, coculture fibroblast: Hs5	0.773	0.89866	0.849	0.798	0.763	0.733	0.716	0.688	0.672
0.1 µM, coculture fibroblast: Hs27A	0.897	0.892	0.89	0.88	0.834	0.803	0.793	0.766	0.727
0.1 µM, coculture fibroblast: Hs343T	0.936	0.907	0.781	0.71	0.652	0.619	0.563	0.536	0.494
0.1 µM, coculture fibroblast: WS1	0.8628	0.779	0.734	0.667	0.611	0.58	0.55	0.514	0.503
1 µM, coculture fibroblast: C12385	0.862	0.801	0.772	0.699	0.653	0.6206	0.5948	0.566	0.5376
1 µM, coculture fibroblast: H6013	0.9293	0.8985	0.8658	0.8239	0.774	0.7568	0.7369	0.702	0.684
1 µM, coculture fibroblast: H6019	0.8206	0.75	0.7226	0.6416	0.57574	0.549	0.508	0.479	0.455
1 µM, coculture fibroblast: H6076	0.956	0.864	0.775	0.726	0.691	0.644	0.604	0.588	0.549
1 µM, coculture fibroblast: H6231	0.9143	0.834	0.856	0.824	0.766	0.705	0.658	0.602	0.562
1 µM, coculture fibroblast: HADF	0.935	0.916	0.871	0.831	0.805	0.773	0.737	0.715	0.677
1 µM, coculture fibroblast: HCFa	0.8772	0.8151	0.7671	0.699	0.662	0.632	0.597	0.566	0.5304
1 µM, coculture fibroblast: HCPF	0.951	0.86	0.762	0.708	0.653	0.611	0.577	0.562	0.532
1 µM, coculture fibroblast: HHSteC	0.878	0.844	0.844	0.771	0.728	0.703	0.684	0.661	0.639
1 µM, coculture fibroblast: HMF	0.957	0.823	0.718	0.651	0.602	0.545	0.504	0.474	0.444
1 µM, coculture fibroblast: HPFa	0.957	0.888	0.9	0.826	0.811	0.769	0.748	0.718	0.677
1 µM, coculture fibroblast: HUF	0.884	0.8027	0.775	0.696	0.641	0.604	0.586	0.563	0.547
1 µM, coculture fibroblast: Hs5	0.979	0.87	0.794	0.743	0.7023	0.659	0.625	0.599	0.577
1 µM, coculture fibroblast: Hs27A	0.8285	0.983	0.922	0.90616	0.874	0.857	0.852	0.834	0.793
1 µM, coculture fibroblast: Hs343T	0.951	0.833	0.734	0.656	0.604	0.559	0.528	0.5	0.457
1 µM, coculture fibroblast: WS1	0.868	0.775	0.733	0.648	0.5795	0.542	0.502	0.464	0.435

Values are relative to the signal before dosing, not to a vehicle control; the signal also falls without drug.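 Fibroblast labels denote human fibroblasts, mainly primary ones from uterus (C12385, HUF), lung (H6013), bone (Hs27A), adrenal (HADF) and skin (WS1), plus mammary HMF and breast cancer-associated Hs343T. Cancer cells are basal-like or mesenchymal-like triple-negative breast cancer lines. A hit is a response shift exceeding 3x replicate standard deviation. The tissue of the other fibroblasts is not given here.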
